# Assay results: article PMC12520541
# Chains of the proteins cited; added tags and fusions are not shown. Residues count along the entry.
# UniProt Q9NS69: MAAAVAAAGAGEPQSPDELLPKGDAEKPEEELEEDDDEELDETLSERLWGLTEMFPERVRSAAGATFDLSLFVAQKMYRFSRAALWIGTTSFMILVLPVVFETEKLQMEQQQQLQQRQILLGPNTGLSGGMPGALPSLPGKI
# UniProt P20029, residues 20-655: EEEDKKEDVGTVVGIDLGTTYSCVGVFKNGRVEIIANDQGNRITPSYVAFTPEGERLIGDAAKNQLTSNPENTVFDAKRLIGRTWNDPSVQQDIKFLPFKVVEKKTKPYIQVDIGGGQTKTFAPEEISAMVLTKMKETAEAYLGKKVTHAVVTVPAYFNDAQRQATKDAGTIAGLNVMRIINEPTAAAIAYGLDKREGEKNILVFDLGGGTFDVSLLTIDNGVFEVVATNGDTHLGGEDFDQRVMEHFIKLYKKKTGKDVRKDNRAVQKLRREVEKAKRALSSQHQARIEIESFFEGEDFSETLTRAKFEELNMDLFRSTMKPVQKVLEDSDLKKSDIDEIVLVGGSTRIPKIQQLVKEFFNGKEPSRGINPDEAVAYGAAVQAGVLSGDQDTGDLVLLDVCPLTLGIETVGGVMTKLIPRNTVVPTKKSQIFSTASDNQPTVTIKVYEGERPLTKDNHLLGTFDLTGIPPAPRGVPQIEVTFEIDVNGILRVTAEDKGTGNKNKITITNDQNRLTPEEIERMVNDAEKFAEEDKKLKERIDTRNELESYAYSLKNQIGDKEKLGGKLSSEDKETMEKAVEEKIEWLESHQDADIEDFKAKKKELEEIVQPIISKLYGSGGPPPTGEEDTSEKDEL
# UniProt P11021, residues 19-654: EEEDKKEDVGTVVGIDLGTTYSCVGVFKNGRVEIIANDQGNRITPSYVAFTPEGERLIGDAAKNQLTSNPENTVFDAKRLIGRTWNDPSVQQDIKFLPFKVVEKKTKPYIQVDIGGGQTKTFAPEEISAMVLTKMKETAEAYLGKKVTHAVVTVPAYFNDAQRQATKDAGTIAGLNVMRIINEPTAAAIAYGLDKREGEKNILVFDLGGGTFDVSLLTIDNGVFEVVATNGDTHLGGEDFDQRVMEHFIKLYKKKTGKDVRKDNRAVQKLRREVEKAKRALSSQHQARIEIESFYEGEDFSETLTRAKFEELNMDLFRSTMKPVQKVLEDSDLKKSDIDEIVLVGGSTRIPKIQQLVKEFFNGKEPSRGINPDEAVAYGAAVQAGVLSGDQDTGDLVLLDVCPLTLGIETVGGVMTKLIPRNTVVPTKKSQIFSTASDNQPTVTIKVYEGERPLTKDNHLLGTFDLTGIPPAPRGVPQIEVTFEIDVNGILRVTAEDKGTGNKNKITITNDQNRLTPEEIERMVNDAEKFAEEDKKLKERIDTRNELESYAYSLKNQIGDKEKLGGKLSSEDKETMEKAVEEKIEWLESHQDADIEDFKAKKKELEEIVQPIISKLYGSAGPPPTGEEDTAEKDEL
# T1: Flag-USP13 (ubiquitin-specific peptidase 13), expressed in NCM460 cells (not stated (human or mouse cDNA cloned)) (UniProt Q92995)
# T1 sequence: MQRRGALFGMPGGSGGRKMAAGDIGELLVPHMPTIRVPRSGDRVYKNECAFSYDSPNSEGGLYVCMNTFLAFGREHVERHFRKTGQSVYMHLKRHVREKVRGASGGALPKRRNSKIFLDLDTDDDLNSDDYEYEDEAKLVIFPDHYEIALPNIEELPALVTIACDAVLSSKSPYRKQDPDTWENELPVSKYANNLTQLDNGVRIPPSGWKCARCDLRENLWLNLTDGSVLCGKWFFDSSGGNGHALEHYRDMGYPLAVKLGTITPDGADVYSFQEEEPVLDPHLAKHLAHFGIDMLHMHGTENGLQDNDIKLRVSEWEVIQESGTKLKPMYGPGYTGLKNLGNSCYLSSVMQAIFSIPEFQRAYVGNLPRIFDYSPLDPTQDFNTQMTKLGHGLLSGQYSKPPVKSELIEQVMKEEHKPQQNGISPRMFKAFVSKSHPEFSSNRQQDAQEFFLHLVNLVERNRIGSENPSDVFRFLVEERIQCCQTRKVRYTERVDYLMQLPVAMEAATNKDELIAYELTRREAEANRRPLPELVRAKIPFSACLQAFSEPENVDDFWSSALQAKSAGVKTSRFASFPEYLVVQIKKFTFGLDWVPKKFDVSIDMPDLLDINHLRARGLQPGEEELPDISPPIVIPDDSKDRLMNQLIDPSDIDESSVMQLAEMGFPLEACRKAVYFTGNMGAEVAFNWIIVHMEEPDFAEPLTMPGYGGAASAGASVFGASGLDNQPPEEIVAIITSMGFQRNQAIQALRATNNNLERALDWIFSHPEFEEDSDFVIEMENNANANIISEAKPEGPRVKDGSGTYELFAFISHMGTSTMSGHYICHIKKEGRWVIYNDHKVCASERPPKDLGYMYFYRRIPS
# T2: Flag-USP13 (ubiquitin-specific peptidase 13), expressed in MODE-K cells (not stated (human or mouse cDNA cloned)) (UniProt Q5BKP2)
# T2 sequence: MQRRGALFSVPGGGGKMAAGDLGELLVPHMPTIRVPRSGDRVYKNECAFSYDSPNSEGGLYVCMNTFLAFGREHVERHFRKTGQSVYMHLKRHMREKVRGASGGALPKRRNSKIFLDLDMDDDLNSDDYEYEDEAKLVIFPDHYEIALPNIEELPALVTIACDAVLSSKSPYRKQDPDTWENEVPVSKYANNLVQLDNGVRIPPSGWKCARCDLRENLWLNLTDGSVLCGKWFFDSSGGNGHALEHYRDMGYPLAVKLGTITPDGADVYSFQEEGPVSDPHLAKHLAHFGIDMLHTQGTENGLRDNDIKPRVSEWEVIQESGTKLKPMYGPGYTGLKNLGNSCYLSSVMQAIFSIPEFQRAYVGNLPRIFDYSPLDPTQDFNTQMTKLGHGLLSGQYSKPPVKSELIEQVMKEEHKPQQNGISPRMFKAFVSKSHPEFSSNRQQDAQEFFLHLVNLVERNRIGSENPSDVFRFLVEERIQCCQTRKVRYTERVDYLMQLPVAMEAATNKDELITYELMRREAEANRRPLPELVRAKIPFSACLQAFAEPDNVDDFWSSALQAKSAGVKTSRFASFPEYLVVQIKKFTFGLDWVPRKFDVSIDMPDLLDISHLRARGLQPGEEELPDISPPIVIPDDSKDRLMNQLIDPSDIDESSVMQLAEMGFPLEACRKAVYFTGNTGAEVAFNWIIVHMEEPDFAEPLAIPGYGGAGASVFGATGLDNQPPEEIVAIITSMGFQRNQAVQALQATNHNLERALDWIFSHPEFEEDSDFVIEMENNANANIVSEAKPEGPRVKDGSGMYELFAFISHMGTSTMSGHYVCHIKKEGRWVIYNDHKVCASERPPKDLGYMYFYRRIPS
# Tests used:
# [1] = molecular target: T1, Flag-USP13 (ubiquitin-specific peptidase 13), expressed in NCM460 cells (not stated (human or mouse cDNA cloned)); experiment: affinity purification with mass spectrometry; Dataset I: NCM460 cells transfected with Flag-vector or Flag-USP13, LPS (5 µg/mL); anti-Flag and protein G-Sepharose beads on cell lysates; LC-MS/MS of bound proteins
# [2] = molecular target: T2, Flag-USP13 (ubiquitin-specific peptidase 13), expressed in MODE-K cells (not stated (human or mouse cDNA cloned)); experiment: affinity purification with mass spectrometry; Dataset II: MODE-K cells transfected with Flag-vector or Flag-USP13, LPS (5 µg/mL); anti-Flag and protein G-Sepharose beads on cell lysates; LC-MS/MS of bound proteins
Molecule,binding [1],binding [2]
"TOMM22, endogenous in NCM460 cells (from UniProt Q9NS69 1-142)",binds,–
"glucose-regulated protein 78 (GRP78), endogenous in MODE-K cells (from UniProt P20029 20-655)",–,binds
"glucose-regulated protein 78 (GRP78), endogenous in NCM460 cells (from UniProt P11021 19-654)",binds,–
"TOMM22, endogenous in MODE-K cells (protein, UniProt Q9CPQ3 1-142) MAAAVAAAGAGEPLSPEELLPKAEAEKAEEELEEDDDDELDETLSERLWGLTEMFPERVRSAAGATFDLSLFVAQKMYRFSRAALWIGTTSFMILVLPVVFETEKLQMEQQQQLQQRQILLGPNTGLSGGMPGALPPLPGKM",–,binds

# No constants are given. Whether binding was seen depends on the method and setting. Binding seen in cells or lysates may run through a third protein. Here binding means that the protein was enriched with, or labelled near, the bait; the list need not be complete. Sequences can lack the tags named with a protein.
